Consider one molecule from US20090123469A1.

No constants are given. Whether binding was seen depends on the method and setting. Some binding calls cover weakened binding; strength is not graded here.

The target in the assay is cynomolgus factor B (cynomolgus). The experiment in a line: hybridoma screen of 400 clones; method not described.

B1: anti-factor B antibody 1F7 (antibody, human IgG1, V domains shown)
VH: QIQLVQSGPELKKPGETVKISCKASGYTFTNYGMNWVKQAPGKGLKWMGWIHTYTGKPTHADDFKGRFAFSLETSASTAYLQISNLKNEDMATYFCARGSLSTAMDYWGQGTTVTVSS
VL: DIVLTQSPASLAVSLGQRATISCKASQSVDYDGDNYMNWYQQTSGQPPKFLISGASNLESGIPARFSGSGSGTDFTLNIHPVEEEDAATYYCQQSNEDPWTFGGGTKLEIKR
B1: the binding entry is “binds”.
